# Source: PubChem BioAssay AID2685 (National Center for Advancing Translational Sciences (NCATS), 2010)
# Some of the results follow. Further columns of the screen follow, without active or inactive calls. Compounds called inactive in the main read-out are mostly missing here. Potencies come from curve fits of mixed quality, noted in brackets.
# Assay: qHTS Assay for Lipid Storage Modulators in Drosophila S3 Cells;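 on cell number change: cells counted by Cell Tracker Red CMTPX staining in the red channel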
# Details: BODIPY lipid droplet fluorescence, 18-24 h; for cell number change: measured here: cell count max response, cells fed with added oleic acid
# Outline: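 Drosophila S3 cells loaded with oleic acid (400 uM, as added) and compounds at several concentrations; lipid droplets imaged by 488-nm laser-scanning cytometry, 500–530 nm intensity and object ratio to cell channel. Percent activity normalized to 20 uM Triacsin C.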
# [1] = measured here: cell number channel AC50, cells fed with added oleic acid
# [2] = measured here: lipid fluorescence (Fed channel) AC50, cells fed with added oleic acid
compound,measurement,setting,value
O=[N+]([O-])c1ccc(CN2CC=C(c3ccccc3)CC2)cc1,cell number change,,51.3%
same,AC50,[1],"6.51 µM [rising, full curve]"
c1ccc(P(c2ccccn2)c2ccccn2)cc1,cell number change,,25.8%
same,AC50,[1],"2.91 µM [rising, full curve, poor fit]"
same,AC50,[2],"6.51 µM [rising, single point]"
Cc1cc(OCC(=O)N[C@@H](Cc2ccccc2)C(=O)O)c2c3c(c(=O)oc2c1)CCCC3,cell number change,,-0.872%
same,AC50,[2],"0.116 µM [falling, full curve, poor fit]"
Cc1sc2c(c1C)C(c1ccc(C(C)(C)C)cc1)=NCC(=O)N2CC(=O)Nc1nccs1,cell number change,,-26.6%
same,AC50,[2],"23.1 µM [falling, single point]"
CN1C(=O)C(=Cc2sc(=O)n(-c3ccccc3)c2N2CCCCC2)C(=O)N(C)C1=O,cell number change,,-7.15%
same,AC50,[2],"3.26 µM [falling, full curve, poor fit]"
CN(C)CC1CCCCC1OC(=O)Cc1ccc(Cl)c([N+](=O)[O-])c1 (stereo not given),cell number change,,18.3%
same,AC50,[2],"29.1 µM [rising, single point]"
COC(=O)C1=C(c2ccccc2OCc2ccccc2)C[C@@H]2CC[C@H]1N2C(=O)NCc1ccc(C(C)(C)C)cc1,cell number change,,3.25%
same,AC50,[2],"6.51 µM [rising, single point]"
CCN1CCN(C(=O)COc2ccc(S(=O)(=O)N(C)Cc3ccccc3)cc2)CC1,cell number change,,-31.6%
same,AC50,[1],"29.1 µM [falling, single point]"
COc1cc(OC)cc(C(=O)NC(=S)N2C[C@H]3C[C@H](C2)c2cccc(=O)n2C3)c1,cell number change,,6.47%
same,AC50,[2],"6.51 µM [rising, single point]"
Cn1cc[n+](C)c1P(=S)(c1ccccc1)c1ccccc1,cell number change,,-10.2%
same,AC50,[1],"0.058 µM [rising, single point]"
COc1ccc(CC2c3cc(OC)c(OC)cc3CCN2C)cc1O (stereo not given),cell number change,,31.7%
same,AC50,[1],"32.6 µM [rising, single point]"
CC(C)c1cccc(O)c(=O)c1,AC50,[1],"1.84 µM [falling, partial curve]"
N#CC(C#N)=Cc1ccc(-c2ccccc2)o1,cell number change,,-14.1%
COc1ccc(CN2C(=O)CC(=O)NC2=O)cc1,cell number change,,-0.105%
CN1CCCC(C(O)(c2ccccc2)c2ccccc2)C1 (stereo not given),cell number change,,27.6%
same,AC50,[1],"0.411 µM [rising, partial curve, poor fit]"
Cc1cc(/C=C2\C(=O)NC(=O)N(c3ccc(Cl)cc3)C2=O)c(C)n1-c1cccc(C(=O)O)c1,cell number change,,32.6%
same,AC50,[1],"25.9 µM [rising, partial curve, poor fit]"
same,AC50,[2],"32.6 µM [rising, single point]"
CCOc1ccc(CC2(CCc3ccncc3)C(=O)NC(=O)NC2=O)cc1,cell number change,,55.4%
same,AC50,[1],"20.6 µM [rising, partial curve, poor fit]"
Cc1cc([P+](=O)O)c(C)n1-c1ccc(Br)cc1,cell number change,,-0.0764%
same,AC50,[2],"0.461 µM [falling, full curve]"
CCOc1cccc(CNC2CN3CCC2CC3)c1 (stereo not given),cell number change,,18.4%
same,AC50,[2],"7.31 µM [falling, partial curve]"
O=C1C2CCCN2C(c2cccs2)N1c1ccccn1 (stereo not given),cell number change,,24.5%
same,AC50,[2],"9.2 µM [rising, partial curve, poor fit]"
COc1cc(CN2CCNCC2)cc(OC)c1OC,cell number change,,9.33%
same,AC50,[2],"0.164 µM [rising, full curve, poor fit]"
Cc1nc2ccccc2c(=O)n1-c1ccc([N+](=O)[O-])cc1,cell number change,,-17.3%
same,AC50,[2],"5.8 µM [rising, single point]"
CCN(CC)CCCN=Cc1c(O)n(-c2cccc(C)c2C)c(=O)[nH]c1=O,cell number change,,-1.38%
same,AC50,[2],"16.4 µM [falling, single point]"
Cc1cc(OCC(=O)NCc2ccc(S(N)(=O)=O)cc2)c2c3c(c(=O)oc2c1)CCC3,cell number change,,3.67%
same,AC50,[2],"5.17 µM [falling, full curve]"
CC(C)[C@]12O[C@H]1[C@@H]1O[C@]13[C@]1(O[C@H]1C[C@H]1C4=C(CC[C@@]13C)C(=O)OC4)[C@@H]2O,cell number change,,-38.7%
same,AC50,[1],"0.82 µM [falling, full curve]"
same,AC50,[2],"0.651 µM [falling, full curve]"
CCN(CC)P(c1n(C)cc[n+]1C)N(CC)CC,cell number change,,-17.5%
COc1ccccc1CCNC(=O)CCn1c(=O)oc2ccccc21,AC50,[1],"32.6 µM [rising, single point]"
C/C(=N\NC(=O)c1ccccc1O)c1c(O)n(Cc2ccccc2)c(=O)[nH]c1=O,cell number change,,-12%
same,AC50,[2],"0.082 µM [falling, full curve, poor fit]"
Cc1cc(N2C(=O)C3CCCN3C2c2sccc2C)no1 (stereo not given),cell number change,,7.46%
same,AC50,[2],"0.00461 µM [falling, full curve, poor fit]"
C/C(=N\N=C(N)N)c1ccccc1,cell number change,,17.1%
same,AC50,[1],"0.517 µM [rising, full curve, poor fit]"
N=C1c2ccccc2CN1NC(=O)c1ccccc1,AC50,[1],"2.06 µM [falling, partial curve]"
CC(=O)c1cccc(NC(=O)N2C[C@H]3C[C@@H](C2)c2cccc(=O)n2C3)c1,cell number change,,23.4%
same,AC50,[2],"29.1 µM [rising, single point]"
O=c1cccc2n1CC1CNC[C@H]2C1,cell number change,,-30.7%
same,AC50,[1],"0.206 µM [falling, full curve]"
same,AC50,[2],"0.206 µM [falling, full curve]"
CC1=CC(=Cc2sc3ccccc3[n+]2C)C=C(C)O1,cell number change,,-57.4%
same,AC50,[1],"5.17 µM [falling, partial curve, poor fit]"
same,AC50,[2],"8.2 µM [falling, partial curve]"
O=P(OC1CCS(=O)(=O)C1)(c1ccccc1)c1ccccc1 (stereo not given),AC50,[1],"0.517 µM [falling, full curve, poor fit]"
COc1cccc(C2(O)CCN(CC(=O)Nc3nc(C)cs3)CC2)c1,cell number change,,-4.6%
Cc1ncc(CN2CCCC(C(=O)c3cccc(OC(C)C)c3)C2)s1 (stereo not given),cell number change,,-0.358%
same,AC50,[2],"0.517 µM [falling, single point]"
Nc1ccc(Br)cc1C(=O)c1ccccc1,cell number change,,-21.7%
same,AC50,[2],"7.31 µM [falling, partial curve, poor fit]"
CC1N(O)C2CCCCCC2N1O (stereo not given),cell number change,,-35.1%
same,AC50,[1],"6.51 µM [falling, full curve, poor fit]"
same,AC50,[2],"5.8 µM [falling, full curve]"
CCn1c(=O)cc(OCC(=O)N2CCC3(CC2)OCCO3)c2ccccc21,cell number change,,-1.29%
same,AC50,[2],"3.26 µM [rising, single point]"
Cc1cc(OCc2ccc([N+](=O)[O-])cc2)c2c3c(c(=O)oc2c1)CCCC3,cell number change,,-5.2%
O=C(Nc1ccccc1)c1cc([N+](=O)[O-])ccc1N1CCNCC1,cell number change,,37.7%
same,AC50,[1],"13 µM [rising, partial curve, poor fit]"
same,AC50,[2],"3.26 µM [rising, full curve, poor fit]"
N/C(=N\[N+](=O)[O-])N/N=C/c1ccc(O)cc1,cell number change,,-0.287%
same,AC50,[1],"2.06 µM [rising, partial curve]"
Clc1ccccc1CN1CCN(c2ccccc2Cl)CC1,cell number change,,120%
same,AC50,[1],"25.9 µM [rising, partial curve]"
same,AC50,[2],"2.31 µM [rising, partial curve]"
COc1ccc(NC(=O)c2cc([N+](=O)[O-])ccc2N2CCNCC2)cc1,cell number change,,2.33%
COC(=O)C1=C(c2ccc3ccccc3c2)C[C@@H]2CC[C@H]1N2C(=O)NCCNC(C)=O,cell number change,,6.98%
same,AC50,[2],"0.82 µM [falling, full curve, poor fit]"
COC(=O)C1=C(c2ccccc2OCc2ccccc2)C[C@@H]2CC[C@H]1N2C(=O)NCc1ccc(C(F)(F)F)cc1,cell number change,,-7.44%
same,AC50,[2],"25.9 µM [falling, single point]"
CCOc1cc(/C=C2\C(=O)NC(=O)N(C)C2=O)cc([N+](=O)[O-])c1O,cell number change,,4.76%
same,AC50,[2],"0.146 µM [falling, full curve]"
O=C1CN(O)C(c2ccccc2)=c2cc(Cl)ccc2=N1,cell number change,,32.3%
same,AC50,[1],"2.59 µM [rising, partial curve, poor fit]"
same,AC50,[2],"0.58 µM [falling, full curve, poor fit]"
NCC1(c2ccc3c(c2)OCCO3)CCCC1,cell number change,,9.79%
same,AC50,[2],"0.00461 µM [rising, full curve, poor fit]"
CCN1C[C@]2(COC(=O)c3ccccc3N)CC[C@H](OC)C34[C@@H]5C[C@H]6[C@H](OC)[C@@H]5[C@](O)(C[C@@H]6OC)[C@@](O)([C@H]13)[C@@H](OC)[C@@H]42,cell number change,,12.5%
same,AC50,[1],"4.11 µM [rising, single point]"
same,AC50,[2],"6.51 µM [falling, single point]"
COC(=O)C1=C(c2ccc(-c3ccccc3)c(F)c2)C[C@@H]2CC[C@H]1N2C(=O)NCc1cccc2ccccc12,cell number change,,-23.8%
O=C(COc1ccc(Cl)cc1)N1CCN(Cc2ccccc2)CC1,AC50,[2],"0.00517 µM [rising, full curve, poor fit]"
COC(=O)C1=C(c2ccccc2OCc2ccccc2)C[C@@H]2CC[C@H]1N2C(=O)NCc1ccc(F)cc1,cell number change,,0.0614%
same,AC50,[2],"5.17 µM [falling, full curve, poor fit]"
O=c1[nH]c(O)c(C=NC2CCN(Cc3ccccc3)CC2)c(=O)[nH]1,cell number change,,31.9%
same,AC50,[1],"16.4 µM [rising, single point]"
COc1ccc(C(=O)C2CN(C)CC2C(=O)c2ccc(OC)cc2)cc1 (stereo not given),cell number change,,-20.7%
same,AC50,[2],"13 µM [falling, partial curve, poor fit]"
C=CCN1C(=O)/C(=C/c2ccc(Br)s2)C(=O)NC1=S,cell number change,,0.88%
same,AC50,[2],"9.2 µM [falling, single point]"
CN(C)C(=O)OCc1n(C)cc[n+]1C,cell number change,,-27.6%
same,AC50,[1],"0.58 µM [falling, full curve, poor fit]"
same,AC50,[2],"0.731 µM [falling, full curve]"

# Another view of part of the listing above:
compound	measurement	setting	value
O=c1cccc2n1CC1CNC[C@H]2C1	AC50	[2]	0.206 µM [falling, full curve]
CC1=CC(=Cc2sc3ccccc3[n+]2C)C=C(C)O1	cell number change		-57.4%
same	AC50	[1]	5.17 µM [falling, partial curve, poor fit]

# Six successive records out of the list so far, quoted:
compound,measurement,setting,value
Clc1ccccc1CN1CCN(c2ccccc2Cl)CC1,AC50,[1],"25.9 µM [rising, partial curve]"
same,AC50,[2],"2.31 µM [rising, partial curve]"
COc1ccc(NC(=O)c2cc([N+](=O)[O-])ccc2N2CCNCC2)cc1,cell number change,,2.33%
COC(=O)C1=C(c2ccc3ccccc3c2)C[C@@H]2CC[C@H]1N2C(=O)NCCNC(C)=O,cell number change,,6.98%
same,AC50,[2],"0.82 µM [falling, full curve, poor fit]"
COC(=O)C1=C(c2ccccc2OCc2ccccc2)C[C@@H]2CC[C@H]1N2C(=O)NCc1ccc(C(F)(F)F)cc1,cell number change,,-7.44%
